Reference: publication PMC9034290
No constants are given. Whether binding was seen depends on the method and setting. In cells and extracts the contact can be indirect. Here binding means that the protein was enriched with, or labelled near, the bait; the list need not be complete.

Chains of the proteins cited; added tags and fusions are not shown. Lines headed by an entry give the natural chain unless they say otherwise; changes in a name come on top.
UniProt Q57W66: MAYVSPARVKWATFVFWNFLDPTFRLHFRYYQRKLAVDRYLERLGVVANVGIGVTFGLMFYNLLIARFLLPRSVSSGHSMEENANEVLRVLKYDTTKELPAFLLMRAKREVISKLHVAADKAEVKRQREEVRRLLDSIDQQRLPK
UniProt Q38CI8: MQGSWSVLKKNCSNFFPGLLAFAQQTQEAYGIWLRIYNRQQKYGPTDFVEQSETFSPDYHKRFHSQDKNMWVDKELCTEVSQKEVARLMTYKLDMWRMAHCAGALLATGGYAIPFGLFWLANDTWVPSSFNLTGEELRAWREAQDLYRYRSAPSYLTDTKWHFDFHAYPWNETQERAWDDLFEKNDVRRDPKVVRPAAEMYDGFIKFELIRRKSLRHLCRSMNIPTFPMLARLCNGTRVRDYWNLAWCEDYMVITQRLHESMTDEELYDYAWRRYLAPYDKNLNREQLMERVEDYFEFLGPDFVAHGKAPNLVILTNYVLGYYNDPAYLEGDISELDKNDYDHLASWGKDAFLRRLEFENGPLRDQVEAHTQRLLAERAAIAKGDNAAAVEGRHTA
UniProt Q57ZW9: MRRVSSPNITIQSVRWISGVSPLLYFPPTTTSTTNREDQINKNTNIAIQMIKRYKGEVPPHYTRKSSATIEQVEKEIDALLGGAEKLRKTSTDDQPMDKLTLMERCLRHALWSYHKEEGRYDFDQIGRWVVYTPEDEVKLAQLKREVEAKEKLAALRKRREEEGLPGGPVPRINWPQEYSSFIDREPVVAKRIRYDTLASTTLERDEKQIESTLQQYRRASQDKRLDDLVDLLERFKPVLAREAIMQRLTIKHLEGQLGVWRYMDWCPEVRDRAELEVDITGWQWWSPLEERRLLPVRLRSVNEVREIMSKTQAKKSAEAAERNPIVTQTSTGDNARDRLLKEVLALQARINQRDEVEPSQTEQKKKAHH
UniProt Q385E4: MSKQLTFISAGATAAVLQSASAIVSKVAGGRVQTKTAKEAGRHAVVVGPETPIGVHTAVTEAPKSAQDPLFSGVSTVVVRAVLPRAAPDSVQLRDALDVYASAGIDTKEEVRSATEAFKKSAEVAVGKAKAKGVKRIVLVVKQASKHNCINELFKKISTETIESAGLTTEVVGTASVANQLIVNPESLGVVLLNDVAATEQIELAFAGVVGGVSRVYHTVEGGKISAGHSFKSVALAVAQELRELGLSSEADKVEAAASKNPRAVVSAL
UniProt Q389Z3: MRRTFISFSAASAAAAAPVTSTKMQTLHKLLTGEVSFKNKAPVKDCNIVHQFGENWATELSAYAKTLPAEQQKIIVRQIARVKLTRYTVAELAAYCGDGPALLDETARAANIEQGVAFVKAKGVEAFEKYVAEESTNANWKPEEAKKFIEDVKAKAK
UniProt Q585V6: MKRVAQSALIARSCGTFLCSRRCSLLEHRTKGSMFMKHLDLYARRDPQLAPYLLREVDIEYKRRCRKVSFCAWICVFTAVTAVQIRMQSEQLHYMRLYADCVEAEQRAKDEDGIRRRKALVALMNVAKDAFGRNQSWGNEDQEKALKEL
UniProt Q586C1: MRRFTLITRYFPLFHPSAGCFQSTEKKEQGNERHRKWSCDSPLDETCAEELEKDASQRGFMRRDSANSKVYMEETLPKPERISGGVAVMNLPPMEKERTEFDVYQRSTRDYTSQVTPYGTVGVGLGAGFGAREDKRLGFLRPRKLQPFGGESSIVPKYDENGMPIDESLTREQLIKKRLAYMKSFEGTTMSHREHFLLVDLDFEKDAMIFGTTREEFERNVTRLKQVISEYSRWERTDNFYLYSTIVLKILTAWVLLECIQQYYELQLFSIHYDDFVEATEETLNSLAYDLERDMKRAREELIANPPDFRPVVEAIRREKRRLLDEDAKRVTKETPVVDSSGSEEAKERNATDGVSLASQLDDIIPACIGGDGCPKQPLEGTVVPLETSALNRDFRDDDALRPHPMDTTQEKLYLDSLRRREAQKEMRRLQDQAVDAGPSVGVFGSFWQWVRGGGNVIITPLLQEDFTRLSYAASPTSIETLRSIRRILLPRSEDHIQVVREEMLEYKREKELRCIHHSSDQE
UniProt Q581Q5: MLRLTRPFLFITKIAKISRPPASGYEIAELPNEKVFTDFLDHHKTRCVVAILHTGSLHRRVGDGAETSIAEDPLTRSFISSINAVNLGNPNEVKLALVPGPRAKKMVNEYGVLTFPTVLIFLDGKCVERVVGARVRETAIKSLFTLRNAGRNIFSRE
UniProt Q38AG1: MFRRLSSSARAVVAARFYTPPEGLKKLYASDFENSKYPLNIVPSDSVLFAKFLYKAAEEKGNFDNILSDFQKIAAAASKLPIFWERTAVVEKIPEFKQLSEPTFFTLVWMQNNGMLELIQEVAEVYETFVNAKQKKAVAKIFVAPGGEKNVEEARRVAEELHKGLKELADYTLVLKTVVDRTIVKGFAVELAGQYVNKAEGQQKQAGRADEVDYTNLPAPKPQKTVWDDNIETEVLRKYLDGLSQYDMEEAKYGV
UniProt Q38DZ5: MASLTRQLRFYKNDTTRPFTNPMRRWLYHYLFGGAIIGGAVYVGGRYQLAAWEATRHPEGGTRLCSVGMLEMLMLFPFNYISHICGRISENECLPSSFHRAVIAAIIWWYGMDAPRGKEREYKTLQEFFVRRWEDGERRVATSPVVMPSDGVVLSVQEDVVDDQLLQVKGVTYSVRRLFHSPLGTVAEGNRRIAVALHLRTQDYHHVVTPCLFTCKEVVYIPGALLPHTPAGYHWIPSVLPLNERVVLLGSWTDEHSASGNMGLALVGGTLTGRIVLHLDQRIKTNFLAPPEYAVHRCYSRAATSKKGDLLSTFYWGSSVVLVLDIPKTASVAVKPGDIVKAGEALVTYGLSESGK

biological target: C-terminally myc-tagged Tb927.8.3070 (T. brucei) (UniProt Q57W66); test: affinity purification with mass spectrometry; SILAC; anti-c-myc affinity gel IP of Tb927.8.3070-myc, cells induced with tetracycline for 1 day and mixed with uninduced cells; 1% digitonin, 20 mM Tris-HCl pH 7.4, 0.1 mM EDTA, 100 mM NaCl, 25 mM KCl, 2 h at 4 °C; eluates analysed by quantitative LC-MS, three replicates

binding, binds:
ATPTB1 (from UniProt Q38CI8), ATPTB2 (from UniProt Q57ZW9), ATPTB3 (from UniProt Q385E4), ATPTB4 (from UniProt Q389Z3), Tb927.2.5140 (from UniProt Q585V6), Tb927.2.5930 (from UniProt Q586C1), cardiolipin-dependent protein 17 (from UniProt Q581Q5), oligomycin sensitivity-conferring protein (from UniProt Q38AG1), phosphatidylserine decarboxylase (from UniProt Q38DZ5) (enzyme)
